{"source": "paper PMC11401227", "about": "“The structure of DNA methyltransferase DNMT3C reveals an activity-tuning mechanism for DNA methylation” (The Journal of Biological Chemistry, 2024)", "tested_on": "DNMT3C MTase domain WT (EMSA complex) + mDNMT3L C-terminal domain", "assay": "EMSA", "conditions": "1.0 uM DNA, 0-2 uM protein; EMSA: 50 mM Tris-HCl pH 8.5, 36% glycerol, 8% glucose, 2 mM DTT, 0.1 mg/ml BSA, 100 mM NaCl, 0.08% Tween 20, 30 min on ice; 8% PAGE, 0.5x TBE pH 8.3, 4 C; recombinant protein; protein details: His6-SUMO removed by ULP1", "note": "Construct, isoform or probe ends are uncertain for at least one entry."}
{"sequence": "GACGACGACGACGACGACGACGACGACGACGACGAC (double strand) [(GAC)12 DNA duplex]", "values": [{"measurement": "binding result", "result": "binds"}]}
